# For at least one compound, name, drawing or mass did not settle the structure. No end group written: not given here.
# Key:
# [1] = system: right atrial ganglionated plexus neurons; test: Activity of right atrial ganglionated plexus neuron populations during epicardial chemical stimuli; format: in vivo; conditions: for neuronal response to epicardial application: right atrial neurons, ventricular sensory inputs
# Description: Arrow indicates application of veratridine to the epicardium of the left ventricle. At baseline, note the cycling of activity with a periodicity of 20 seconds. In the unstressed condition, this bursting is usually associated with increased coordination of activity between the two populations of neurons (see bottom trace).
# Sub-populations of right atrial neurons that receive afferent inputs from sensory neurites in both ventricles are responsive to local mechanical stimuli and the nitric oxide donor nitroprusside. Neurons in at least one ganglionated plexus locus were activated by epicardial application of veratridine, bradykinin, the β1-adrenoceptor agonist prenaterol or the excitatory amino acid glutamate. […] These periods of coupled activity occurred every 30-50 second during basal states, as well as when neuronal activity was enhanced by chemical activation of their ventricular sensory inputs. It has been observed that neurons throughout one intrinsic cardiac ganglionated plexus receive inputs from mechano- and chemo-sensory neurites located in both ventricles. That such neurons respond to multiple chemical stimuli, including those liberated from adjacent adrenergic efferent nerve terminals, indicates the complexity of the integrative processing of information that occurs within the intrinsic cardiac nervous system.
# Intraganglionic interactions within the intrinsic cardiac nervous system depend in large part on common shared afferent inputs and/or interconnections mediated via local circuit neurons. In order to evaluate these interactions, separate populations of neurons were recorded in the ventral right atrial ganglionated plexus (RAGP) in basal states and during discrete mechanical and chemical stimuli of ventricular neurites. In basal states, the coherence of activity generated by the two populations of RAGP neurons fluctuated with a periodicity of 30-50 s and with an average peak coherence of 0.88±0.03. […]
# T3 neurons = test: T3 neuron activity with intrapericardial bradykinin and glutamate pledget on C1-C2 segments; format: in vivo, rats; conditions: intrapericardial BK; after the rostral C1 cut
# Description: FIGS. 19A-19F show responses of T3 cell to chemical stimulation of glutamate before and after rostral C1 spinal transection. The responses were evoked by intrapericardial injections of bradykinin (BK). Saline was used as the control. Pledgets of glutamate placed on the C1-C2 dorsal spinal cord (B) decreased the discharge rate of the cell for the three minute period it was applied. The background activity recovered after glutamate was removed. […] The presence of glutamate attenuated this response (E). The increased rate of discharge to BK injections was again observed when glutamate was removed (F). In each panel, action potentials were recorded on a rate histogram.
# Originally, it was assumed that supraspinal pathways are necessary for descending inhibitory effects of visceral afferents on sensory neurons. […] Thus, it appears that the upper cervical segments play an important role in the hierarchy that controls the efferent outflow to the intrathoracic and intrinsic cardiac nervous system. […]
# Descending modulation of thoracic cardiac nociceptive transmission by upper cervical spinal neurons. […] Methods: Extracellular potentials of single T3 neurons were recorded in pentobarbital anesthetized male rats. […]
Compound,neuronal response to epicardial application [1],coherence of activity generated by two populations of neurons ([1]; veratridine applied to epicardium of the left ventricle),discharge rate of thoracic STT cell (T3 neurons)
COc1ccc(C(=O)O[C@H]2CC[C@@]3(C)[C@@H]4CC[C@H]5[C@]6(O)C[C@H](O)[C@@]7(O)[C@@H](CN8C[C@@H](C)CC[C@H]8[C@@]7(C)O)[C@]6(O)C[C@@]53O[C@]24O)cc1OC [veratridine],activated,approached unity,
RPPGFSPFR [bradykinin],activated,,increased the discharge rate

# From patent US9072901B2, “Cardiac neuromodulation and methods of using same” (The Board of Regents of the University of Oklahoma, priority 2001, dated 2015)
